From publication PMC4980022
No constants are given. Whether binding was seen depends on the method and setting. Binding seen in cells or lysates may run through a third protein. Binding can be weak; no strength is given. Where a sequence is shown, tags or fusion partners need not be part of it.

Chains of the proteins cited; added tags and fusions are not shown. Lines headed by an entry give the natural chain unless they say otherwise; changes in a name come on top.
UniProt B2RLE8: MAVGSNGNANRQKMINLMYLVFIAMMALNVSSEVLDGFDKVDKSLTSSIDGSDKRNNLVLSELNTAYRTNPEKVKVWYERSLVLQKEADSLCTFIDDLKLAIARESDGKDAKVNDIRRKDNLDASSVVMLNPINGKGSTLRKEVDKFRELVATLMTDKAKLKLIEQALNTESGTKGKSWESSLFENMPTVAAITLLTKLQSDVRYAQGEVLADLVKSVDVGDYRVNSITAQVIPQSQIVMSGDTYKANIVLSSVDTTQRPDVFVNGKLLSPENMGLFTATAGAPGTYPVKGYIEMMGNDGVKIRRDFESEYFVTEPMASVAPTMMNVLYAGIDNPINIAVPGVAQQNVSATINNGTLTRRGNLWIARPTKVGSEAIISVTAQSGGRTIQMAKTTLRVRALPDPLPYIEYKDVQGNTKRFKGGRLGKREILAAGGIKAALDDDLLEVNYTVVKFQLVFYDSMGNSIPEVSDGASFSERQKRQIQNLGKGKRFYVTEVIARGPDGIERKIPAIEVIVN

Molecular target: T1, PorL-myc (Porphyromonas gingivalis ATCC 33277) (UniProt B2RLE9)
T1 sequence: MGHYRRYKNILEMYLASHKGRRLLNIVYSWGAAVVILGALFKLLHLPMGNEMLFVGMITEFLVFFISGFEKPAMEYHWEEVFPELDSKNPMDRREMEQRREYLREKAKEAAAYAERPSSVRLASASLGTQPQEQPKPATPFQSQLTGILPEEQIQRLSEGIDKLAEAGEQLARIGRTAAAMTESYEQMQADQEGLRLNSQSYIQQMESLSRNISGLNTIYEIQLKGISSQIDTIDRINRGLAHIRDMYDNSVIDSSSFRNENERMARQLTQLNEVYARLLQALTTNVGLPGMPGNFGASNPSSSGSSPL
Assay: co-IP; porL/porL’-‘myc P. gingivalis lysed in 1% DDM, Myc agarose 1 hour at 4°C, lysozyme treatment, elution with SDS loading buffer or myc peptide; bands on SDS-PAGE identified by MS; wild type as negative control

| Substance | binding |
| --- | --- |
| PorN | no binding |
| PorM (from UniProt B2RLE8) | binds |
